The supplement of paper PMC3334620
The full ranking holds about 33,000 sequences; the median of “E-score (-0.5 to 0.5)” is about -0.015, and the highest 2% start at about 0.3. The list shows a part of the results.

biological target: T1, Abf1 (UniProt P14164); assay: PBM E-score (8-mer binding enrichment) (E-score (-0.5 to 0.5)); higher = stronger / more preferred TF binding; conditions: protein concentration: 200 nM; construct: GST-full length
T1 sequence: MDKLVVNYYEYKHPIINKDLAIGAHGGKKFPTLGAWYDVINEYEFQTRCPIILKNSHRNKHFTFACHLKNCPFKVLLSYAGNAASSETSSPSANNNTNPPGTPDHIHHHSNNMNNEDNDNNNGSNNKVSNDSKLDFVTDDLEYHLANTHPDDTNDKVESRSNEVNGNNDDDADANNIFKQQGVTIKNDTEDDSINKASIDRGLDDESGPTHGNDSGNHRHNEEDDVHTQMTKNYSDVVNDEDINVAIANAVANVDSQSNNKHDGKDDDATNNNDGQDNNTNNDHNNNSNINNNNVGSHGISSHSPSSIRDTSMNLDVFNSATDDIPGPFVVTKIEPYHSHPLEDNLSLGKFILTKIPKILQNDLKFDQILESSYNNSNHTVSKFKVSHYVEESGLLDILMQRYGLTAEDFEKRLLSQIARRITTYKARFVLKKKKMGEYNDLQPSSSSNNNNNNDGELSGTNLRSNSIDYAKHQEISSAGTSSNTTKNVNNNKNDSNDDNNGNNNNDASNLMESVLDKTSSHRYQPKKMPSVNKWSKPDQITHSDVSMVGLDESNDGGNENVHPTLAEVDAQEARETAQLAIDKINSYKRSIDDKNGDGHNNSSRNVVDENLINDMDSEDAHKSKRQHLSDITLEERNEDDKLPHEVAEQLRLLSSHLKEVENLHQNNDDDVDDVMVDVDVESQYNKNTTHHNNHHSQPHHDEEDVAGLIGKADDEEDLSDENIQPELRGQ
Protocol: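 Universal 'all 10-mer' protein binding microarrays (Agilent AMADID 015681) probed with GST-tagged S. cerevisiae TFs (full-length or DBD) made by in vitro transcription/translation (PURExpress), about 100-200 nM. Bound TF was detected with fluorescent anti-GST. Each ungapped 8-mer (which stands for itself and its reverse complement) is scored by the PBM enrichment score (E-score), a modified Wilcoxon-Mann-Whitney statistic from -0.5 to +0.5, computed with the Universal PBM Analysis Suite. Scale: above 0.35 generally sequence-specific binding.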

| Sequence | PBM E-score |
| --- | --- |
| ATCCCCGA | -0.116 |
| CAATAAGA | 0.0753 |
| CAAGCGGA | -0.103 |
| CCTTGCTA | 0.0311 |
| GAGCCCCC | -0.283 |
| GTTTATAA | 0.156 |
| CGACCTAA | 0.141 |
| CGAGTCTC | -0.0241 |
| CACCCCTC | -0.0463 |
| AGAAGAGG | -0.211 |
| ATAACTAC | 0.144 |
| ACCCGTGC | 0.104 |
| CCTGCAGG | -0.175 |
| CAAGATTG | 0.017 |
| CATAGTCA | 0.109 |
| GAAGAAAA | -0.114 |
| GCCACCGC | -0.188 |
| ATCGGTTA | 0.0643 |
| CCCTGGCC | -0.178 |
| CTTTATTC | -0.0198 |
| AGATCGCC | 0.157 |
| CAGAACGA | 0.242 |
| CATAGGAC | -0.122 |
| CGGCTGCA | -0.0811 |
| GTTCTACA | -0.0412 |

| Sequence | PBM E-score |
| --- | --- |
| GGGGAAAA | -0.179 |
| AGAAACCA | -0.068 |
| ATCCTAGC | 0.0133 |
| ATGCCTGG | -0.00694 |
| ACCTAAAC | -0.0038 |
| CCCATACA | -0.178 |
| ATTGCAGC | -0.0863 |
| ACAGCGGG | -0.0337 |
| ACTTGCAT | -0.176 |
| GCTACGTA | 0.276 |
| GACTCGTA | 0.0549 |
| ACACATAG | -0.0492 |
| AGAGTGTG | -0.158 |
| ACAGTTAG | 0.023 |
| AGCGTCAT | -0.09 |
| CAAAGCGG | -0.0648 |
| CACTATGG | -0.145 |
| CTTTACGC | -0.0735 |
| CAATCCAG | -0.0221 |
| AGCTATTA | 0.00176 |
| TCTGACAA | 0.0639 |
| CCGTTCCA | 0.0898 |
| CGCAACTA | 0.0892 |
| CGTTAACG | 0.142 |
| CAAGAACC | 0.0485 |

| Sequence | PBM E-score |
| --- | --- |
| TGCCGTAA | 0.071 |
| GAAGGCGC | -0.117 |
| ATAATTCA | 0.141 |
| GAGCCTAA | -0.225 |
| CCGACCTA | 0.122 |
| GAAACTGA | -0.0678 |
| AAAGACCG | -0.00037 |
| CGTCGCTA | 0.205 |
| TCGGTCAA | 0.0305 |
| CGCCTTGA | -0.135 |
| ATCGAGAT | 0.0204 |
| GCACTCCC | -0.296 |
| CAAATCTG | 0.0375 |
| CTCCCCGA | -0.147 |
| GATTAAGC | -0.043 |
| ACATAAGT | 0.0602 |
| AAACTTCA | 0.0314 |
| AAAGTTCT | -0.139 |
| ACGGCGAT | 0.313 |
| CACTACAA | 0.284 |
| ACGCGACG | 0.0907 |
| AATTTAGC | 0.116 |
| TAACAATA | 0.0567 |
| CAGTGTAC | 0.0351 |
| CTCACAAA | -0.216 |

| Sequence | PBM E-score |
| --- | --- |
| CGCGTGGC | -0.0699 |
| AATTCAGG | 0.0511 |
| ATGGTTGA | -0.0624 |
| ACGGCCAC | 0.209 |
| CACAACTA | -0.00249 |
| AATCTACG | 0.141 |
| GTGTGAGA | 0.0847 |
| AATCAATG | 0.222 |
| GGTGCTAA | -0.086 |
| GCTCCTGA | -0.23 |
| CACAAGCG | -0.332 |
| AATGTTAG | -0.0298 |
| ACTGGAAT | 0.0649 |
| CGCAGGGC | -0.0334 |
| GAGAGAAC | 0.0911 |
| CGGAATAG | -0.00573 |
| TATCTTCA | 0.138 |
| CGGTTGCC | 0.019 |
| CGCACCCC | -0.13 |
| TAACAGAA | 0.0748 |
| TTAGCCAA | -0.00286 |
| ACTGCGGC | -0.218 |
| CCGGGTAG | -0.079 |
| CGTTCGCA | 0.183 |
| CGTAACGA | 0.0356 |

| Sequence | PBM E-score |
| --- | --- |
| ATCTCTCA | 0.0639 |
| GCTGGGAA | -0.0941 |
| TAAGTGTA | 0.0245 |
| CCTTTATC | -0.0556 |
| CTCCCAGC | -0.0417 |
| ATTATTCA | 0.193 |
| TAAGGATA | -0.0106 |
| CGCTTAAA | -0.0257 |
| CGACCCCG | -0.337 |
| CATTTTGA | 0.17 |
| GCATACAC | -0.102 |
| AAATATAG | 0.239 |
| GAGGCTCA | -0.109 |
| AGACTACG | -0.135 |
| CCTTCTTC | -0.206 |
| AATCCTCC | -0.168 |
| ACGGCTGA | 0.06 |
| AACTGTCG | 0.211 |
| AGCGACAC | 0.169 |
| AGCCGACA | -0.188 |
| CTATCTCC | -0.0555 |
| AATCTTCG | 0.155 |
| CGGTGATC | 0.214 |
| TGAACGCA | 0.092 |
| ATGGAAGA | 0.0619 |

| Sequence | PBM E-score |
| --- | --- |
| ATGTATAA | 0.103 |
| ATAAGCAT | -0.0317 |
| CAGGTGGG | -0.193 |
| CAAGATAC | 0.047 |
| GGAGATTA | -0.0538 |
| GAAAACAA | -0.00045 |
| TGGGCCAA | -0.148 |
| AAGCGATG | 0.158 |
| ACGGACGG | 0.077 |
| CGATAGGA | 0.0789 |
| CACAGCTA | -0.157 |
| CATTACGC | -0.0418 |
| ATGTGGGC | -0.111 |
| CGTCGCCC | -0.152 |
| CCCCAGCC | -0.122 |
| GCTCCAGA | -0.176 |
| AATCCCAC | -0.135 |
| ATACTAAT | 0.12 |
| GCCATGCC | -0.147 |
| GCATTGGA | -0.207 |
| GAAGGGTA | -0.16 |
| CAGATATG | 0.00568 |
| ATTCTAGC | 0.0874 |
| TCAAAGAA | -0.0306 |
| CATAATAC | 0.129 |

For convenience, some entries already given:

| Sequence | PBM E-score |
| --- | --- |
| ATCGGTTA | 0.0643 |
| CCCTGGCC | -0.178 |
| CTTTATTC | -0.0198 |
| AGATCGCC | 0.157 |
| CAGAACGA | 0.242 |
| CATAGGAC | -0.122 |
| CGGCTGCA | -0.0811 |
| GTTCTACA | -0.0412 |
| GGGGAAAA | -0.179 |
| AGAAACCA | -0.068 |
| ATCCTAGC | 0.0133 |
| ATGCCTGG | -0.00694 |
| ACCTAAAC | -0.0038 |
| CCCATACA | -0.178 |
| ATTGCAGC | -0.0863 |
| ACAGCGGG | -0.0337 |
| ACTTGCAT | -0.176 |
| GCTACGTA | 0.276 |
| GACTCGTA | 0.0549 |
| ACACATAG | -0.0492 |
| AGAGTGTG | -0.158 |
| ACAGTTAG | 0.023 |
| AGCGTCAT | -0.09 |
| CAAAGCGG | -0.0648 |
| CACTATGG | -0.145 |
| CTTTACGC | -0.0735 |
| CAATCCAG | -0.0221 |
| AGCTATTA | 0.00176 |
| TCTGACAA | 0.0639 |
| CCGTTCCA | 0.0898 |
| CGCAACTA | 0.0892 |
| CGTTAACG | 0.142 |
| CAAGAACC | 0.0485 |
| TGCCGTAA | 0.071 |
| GAAGGCGC | -0.117 |
| ATAATTCA | 0.141 |
| GAGCCTAA | -0.225 |
| CCGACCTA | 0.122 |
| GAAACTGA | -0.0678 |
| AAAGACCG | -0.00037 |
| CGTCGCTA | 0.205 |
| TCGGTCAA | 0.0305 |
| CGCCTTGA | -0.135 |
| ATCGAGAT | 0.0204 |
| GCACTCCC | -0.296 |
| CAAATCTG | 0.0375 |
| CTCCCCGA | -0.147 |

(continued)

| Sequence | PBM E-score |
| --- | --- |
| GTGGGTTA | -0.111 |
| AGCATTTC | 0.0236 |
| CACTTAAA | -0.0129 |
| CTTCGGAA | -0.00441 |
| ATACTTCG | 0.138 |
| GACCCCCC | -0.186 |
| AGGCTCAC | -0.135 |
| TCTTGGAA | -0.00047 |
| AGGCCACC | -0.154 |
| AGAATAAT | 0.0573 |
| TAAAAGCA | -0.0293 |
| GGACGAAA | 0.0999 |
| GATCTTGA | 0.0915 |
| CCAACAAC | 0.05 |
| AAGCGCCG | -0.00412 |
| ATGTTTGG | -0.139 |
| CCTCTACA | -0.245 |
| AAAGTTGA | 0.0822 |
| CTGTCACC | 0.174 |
| CATGTCAG | 0.0449 |
| CTTTAAAG | -0.149 |
| CTAGAATC | -0.0573 |
